Data: paper PMC12406198, “Decadentate Acyclic Chelators for Lanthanum Radiopharmaceuticals” (Journal of Medicinal Chemistry, 2025)

Test: Radiolabeling with [^135La]La^3+ (radio-TLC)
Details: for formation of stable complex with ^135La: 37 and/or 70 °C, pH 4.5
[1] = 3 μM ligand, 1 min, pH 4–5, room temperature
[2] = 3 μM ligand, 1 min, pH 4–5, room temperature, n = 6

O=C(O)CN(CCN(CC(=O)O)CC(=O)O)CC(=O)O [EDTA^4–, ethylenediamine-N,N,N′,N′-tetraacetic acid]
formation of stable complex with ^135La: did not form stable complexes

O=C(O)c1cccc(CN(Cc2cccc(C(=O)O)n2)[C@@H]2CCCC[C@H]2N(Cc2cccc(C(=O)O)n2)Cc2cccc(C(=O)O)n2)n1 [TPADAC^4–]
molar activity [1]: 326.8 MBq/nmol | radiochemical purity [2]: greater than 99%

O=C(O)c1cccc(CN(CCN(Cc2cccc(C(=O)O)n2)Cc2cccc(C(=O)O)n2)Cc2cccc(C(=O)O)n2)n1 [TPAEN^4–, N,N,N′N′-tetrakis[(6-carboxypyridin-2-yl)methyl]-ethylenediamine]
molar activity [1]: 299.4 MBq/nmol | radiochemical purity [2]: greater than 99%

O=C(O)CN1CCN(CC(=O)O)CCN(CC(=O)O)CCN(CC(=O)O)CC1 [H4DOTA, 1,4,7,10-tetraazacyclododecane-1,4,7,10-tetraacetic acid]
radiochemical purity (60 min at 70 °C, pH 4.5, n = 3): 97%

O=C(O)CN1CCCN(CC(=O)O)CCN(CC(=O)O)CCCN(CC(=O)O)CC1 [H4TETA, 1,4,8,11-tetraazacyclotetradecane-1,4,8,11-tetraacetic acid]
formation of stable complex with ^135La: did not form stable complexes

O=C(O)CN1CCN(CC(=O)O)CCN(CC(=O)O)CC1 [H3NOTA, 2,2′,2″-(1,4,7-triazonane-1,4,7-triyl)triacetic acid]
formation of stable complex with ^135La: did not form stable complexes

NC12CNCCNCC(N)(CNCCNC1)CNCCNC2 [DiAmSar, 3,6,10,13,16,19-hexaazabicyclo[6.6.6]icosane-1,8-diamine]
formation of stable complex with ^135La: did not form stable complexes

Some compounds share one wording; it may come from a single statement.
